Results published in PubChem BioAssay AID2685 (National Center for Advancing Translational Sciences (NCATS), 2010).
The other results are listed elsewhere or left out. The main result of the screen is listed elsewhere. These columns were measured beside it and carry no call. Most of these compounds were active or inconclusive in the main read-out, so they are no random draw. The note in brackets gives the kind of curve behind each potency; many fits are weak.

Test: qHTS Assay for Lipid Storage Modulators in Drosophila S3 Cells;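 on cell number change: cells counted by Cell Tracker Red CMTPX staining in the red channel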
Conditions: BODIPY lipid droplet fluorescence, 18-24 h; for cell number change: measured here: cell count max response, cells fed with added oleic acid
Summary of the method: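 Laser-scanning cytometry quantifies lipid droplet accumulation (500–530 nm total intensity; droplet/cell object ratio) in oleic acid-fed (400 uM added) Drosophila S3 cells treated with a concentration series. 20 uM Triacsin C defined 100% inhibition.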

[1] = measured here: cell number channel AC50, cells fed with added oleic acid
[2] = measured here: lipid fluorescence (Fed channel) AC50, cells fed with added oleic acid

| Structure (SMILES) | cell number change | AC50 [1] | AC50 [2] |
| --- | --- | --- | --- |
| C=C(C)CSc1nc2ccccc2c(=O)n1-c1c(C)n(C)n(-c2ccccc2)c1=O | 33.2% | 16.4 µM [rising, single point] |  |
| O=C(O)C1=CC[C@@H](c2ccc(Cl)cc2)N(S(=O)(=O)c2ccc(Cl)cc2)[C@H]1c1ccc(F)cc1 | -37.5% |  |  |
| COc1ccc(CCNC(=O)c2oc3ccccc3c2C)cc1 | -16.3% |  |  |
| Nc1cc(N)nc(SCC(=O)NCc2ccco2)n1 | -21% |  |  |
| Cc1ccc2oc(C(=O)NCC(c3ccco3)N(C)C)c(C)c2c1 (stereo not drawn) | 12.8% |  | 6.51 µM [falling, single point] |
| Cc1ccc(C(=O)NCC(=O)NCCc2ccc(S(N)(=O)=O)cc2)s1 | -21.7% |  | 29.1 µM [falling, single point] |
| CC1(C)CN(c2ccc(F)cc2)C1=O | -34.9% | 2.31 µM [falling, full curve, poor fit] |  |
| CCOC(=O)C1CCN(C2=C(NS(=O)(=O)c3ccc(Cl)cc3)C(=O)c3ccccc3C2=O)CC1 | -60.8% | 16.4 µM [falling, partial curve, poor fit] | 8.2 µM [falling, partial curve] |
| O=C(c1c[nH]c(C(=O)C(Cl)(Cl)Cl)c1)c1ccc(F)cc1F | -65.2% | 23.1 µM [falling, partial curve, poor fit] | 7.31 µM [falling, partial curve] |
| CNC(=O)[C@H]1O[C@@H](n2cnc3c(NCc4cccc(I)c4)nc(Cl)nc32)[C@H](O)[C@@H]1O | -28.7% |  | 6.51 µM [rising, single point] |
| CCOC(=O)c1[nH]c(CSc2nnnn2-c2ccccc2C)c(C(=O)OCC)c1C | -10.6% |  | 1.64 µM [rising, full curve] |
| CCC(C)(C)NC(=O)CN(C(=O)CNS(=O)(=O)c1ccccc1)c1ccccc1 | 8.62% |  | 4.61 µM [falling, single point] |
| Cc1csc(Cn2c(CN(C)C)nc3ccccc3c2=O)n1 | 0.992% |  | 6.51 µM [rising, single point] |
| CCNC(=O)CC1C(=O)N(c2ccc(F)cc2)C(=S)N1CCc1ccncc1 (stereo not drawn) | 28% |  |  |
| CC1(C)CC(=O)c2c(oc3ccc(NS(=O)(=O)c4cccc5cccnc45)cc23)C1 | -34.7% |  | 29.1 µM [falling, single point] |
| Cc1nc(Nc2ccc(C(=O)O)cc2)nc(Nc2ccc(C(=O)O)cc2)c1[N+](=O)[O-] | -12.7% |  | 4.61 µM [falling, full curve, poor fit] |
| O=C(CCCN1C(=O)c2ccccc2C1=O)NC1CCCCCC1 | 43.7% | 8.2 µM [rising, partial curve, poor fit] |  |
| CC(=O)c1cccc(NC(=O)c2cc3nc(C)cc(C)n3n2)c1 | -3.05% |  |  |
| Cn1c(=O)oc2cc(NC(=O)CCl)ccc21 | -8.36% |  | 6.51 µM [falling, single point] |

| Structure (SMILES) | cell number change | AC50 [1] | AC50 [2] |
| --- | --- | --- | --- |
| CC(OC(=O)Cc1c[nH]c2ccccc12)C(=O)NC1CCCCC1C (stereo not drawn) | -2.51% |  | 0.517 µM [falling, partial curve, poor fit] |
| O=C(Nc1ccc2nc3n(c(=O)c2c1)CCCC3)c1cc([N+](=O)[O-])ccc1F | -53.7% | 20.6 µM [falling, partial curve] | 8.2 µM [falling, partial curve] |
| O=C(/C=C/c1ccco1)OCn1nnc2ccccc2c1=O |  | 0.0058 µM [falling, full curve, poor fit] |  |
| O=C(CSCc1ccc(Cl)cc1)Nc1cc([N+](=O)[O-])ccc1O | -64.7% | 16.4 µM [falling, partial curve] | 29.1 µM [falling, single point] |
| O=C(NCCC1CCCCN1S(=O)(=O)c1ccccc1)C(=O)NCc1ccccn1 (stereo not drawn) | 1.43% |  | 0.103 µM [rising, full curve, poor fit] |
| C/C(=N\NC(=S)NC1CCCCC1)c1cccs1 | 17.3% |  | 0.1 µM [rising, full curve, poor fit] |
| CC1CCN(C(=O)C(Cc2ccccc2)NS(=O)(=O)c2ccc3c(c2)oc(=O)n3C)CC1 (stereo not drawn) |  |  | 0.103 µM [rising, full curve, poor fit] |
| CC1(C)Cc2c(ccc3ccccc23)C(c2cc3ccccc3oc2=O)=N1 | 12.9% | 0.92 µM [rising, full curve, poor fit] | 1.84 µM [rising, full curve, poor fit] |
| CC1(c2ccccc2)CC(c2ccccc2)=Nc2nonc2N1 (stereo not drawn) | -1.04% |  | 0.731 µM [rising, full curve, poor fit] |
| Cc1ccc(N/N=C/c2ccncc2)cc1 | 4.5% |  | 7.31 µM [rising, partial curve] |
| CC(C)c1ccc2[nH]c(O)c(N=NC(=S)NCCc3ccccc3)c2c1 | -41.1% | 18.4 µM [falling, single point] | 20.6 µM [falling, single point] |
| CC(=O)Nc1ccc(S(=O)(=O)N(Cc2ccccc2)c2ccccc2)cc1 | -6.46% | 0.00517 µM [falling, full curve, poor fit] |  |
| COc1cc2c(cc1OC)C(=O)CC(C)S2 (stereo not drawn) | -9.66% | 0.00517 µM [falling, full curve, poor fit] |  |
| CCOC(=O)C1=C(NC(=S)NC(=O)c2ccccc2)c2ccccc2CC1(C)CC (stereo not drawn) | -38% | 7.31 µM [falling, partial curve, poor fit] |  |
| CC(NC(=O)/C=C/c1ccco1)c1nc2ccccc2n1Cc1cccc(Cl)c1 (stereo not drawn) | -0.476% |  | 1.3 µM [falling, single point] |
| COCCN(CC1CCCN(C2Cc3ccccc3C2)C1)C(=O)c1cccc(C)c1 (stereo not drawn) | -4.2% |  |  |
| COc1ccc(NC(=O)Nc2ccc(CC(=O)O)cc2)cc1 |  |  | 5.8 µM [falling, full curve] |
| CCCCOC(=O)CCc1c(C)[nH]c(=O)c(C#N)c1C | 17.9% |  | 2.31 µM [rising, single point] |
| Cc1ccc(CS(=O)(=O)Cc2ccc(C(=O)NCCc3ccccc3)o2)cc1 | 7.31% |  | 6.51 µM [rising, single point] |

As entered above:
AC50 [2], Cc1ccc(CS(=O)(=O)Cc2ccc(C(=O)NCCc3ccccc3)o2)cc1 is entered as 6.51 µM [rising, single point]
cell number change, O=C(NCCC1CCCCN1S(=O)(=O)c1ccccc1)C(=O)NCc1ccccn1 (stereo not drawn) is entered as 1.43%
AC50 [2], COc1ccc(NC(=O)Nc2ccc(CC(=O)O)cc2)cc1 is entered as 5.8 µM [falling, full curve]
